We go through ten sequences from PMC9958909.

Changes are numbered by the printed parent chain. For part of these data: Negatives hold for the conditions tested. For part of these data: At least one verdict rests on a figure or table, not on a statement of the authors. For part of these data: Where a protein sequence is shown, tags need not be part of it. For part of these data: The comparison behind a weaker result is the experiment's own reference, which may not be listed here. For part of these data: The exact form of at least one protein or probe is not confirmed.

For data set [1], the target named is T1, SAFB2 RRM (404-485) (Homo sapiens) (UniProt Q14151).
T1 sequence (looked up): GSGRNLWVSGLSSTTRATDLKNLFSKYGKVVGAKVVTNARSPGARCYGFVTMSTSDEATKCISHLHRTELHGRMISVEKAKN
Kind of data set: NMR titration. To be noted: NMR: 20 mM BisTris, 150 mM NaCl, pH 6.5, 5% D2O, 298 K (RRM plus 2 mM TCEP), recombinant protein, residues 404-485.

The target of data set [2] is T2, SAFB2 SAP WT (21-70) (Homo sapiens) (UniProt Q14151).
T2 sequence (looked up): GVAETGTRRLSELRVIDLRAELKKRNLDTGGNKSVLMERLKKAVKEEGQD
Kind of data set: EMSA. To be noted: 0-40 uM SAP, EMSA: 25 mM sodium phosphate, 150 mM NaCl, 0.02% NaN3, pH 6.5, 10 mM MgCl2, 0.6 ug yeast tRNA, 0.1 pmol DNA in 20 uL, temperature not stated, recombinant protein, residues 21-70.

For data set [3], the target named is SAFB2 SAP S31A (Homo sapiens) (UniProt Q14151). Kind of data set: NMR titration. To be noted: 8x DNA; NMR: 20 mM BisTris, 150 mM NaCl, pH 6.5, 5% D2O, 298 K (RRM plus 2 mM TCEP); recombinant protein; residues 21-70; protein details: N-terminal GAM left after TEV cleavage.
The target of data set [4] is T3, SAFB2 SAP R45A (Homo sapiens) (UniProt Q14151).
T3 sequence (looked up): T2 sequence (looked up) with R25A
Description: NMR titration. To be noted: 6x DNA, minor CSPs, likely non-specific, protein unfolded; NMR: 20 mM BisTris, 150 mM NaCl, pH 6.5, 5% D2O, 298 K (RRM plus 2 mM TCEP); recombinant protein; residues 21-70; protein details: N-terminal GAM left after TEV cleavage.

The target of data set [5] is T2, SAFB2 SAP WT (21-70) (Homo sapiens). Description: NMR titration. To be noted: NMR: 20 mM BisTris, 150 mM NaCl, pH 6.5, 5% D2O, 298 K (RRM plus 2 mM TCEP), recombinant protein, residues 21-70.
In data set [6] the target is SAFB2 SAP S31A (Homo sapiens) (UniProt Q14151). Description: EMSA. To be noted: up to 40 uM, only slightly impaired; EMSA: 25 mM sodium phosphate, 150 mM NaCl, 0.02% NaN3, pH 6.5, 10 mM MgCl2, 0.6 ug yeast tRNA, 0.1 pmol DNA in 20 uL; temperature not stated; recombinant protein; residues 21-70; protein details: N-terminal GAM left after TEV cleavage; label: 5'-6-FAM on fw strand.

[7] abbreviates: exclusively binds dsDNA, label: 5'-6-FAM, single-stranded DNA.

As for UUUUUUU [U7], in data set [1] (least-preferred motif), the binding result is “binds more weakly”.

In the case of GCAATAAATACG [ssAT13mer], in data set [2] (setting [7]), the binding result is “no binding”.

As to CAATATAAC (double strand) [dsAT9mer], the binding result in data set [3] and in data set [4] was “binds more weakly” in each case.

As for UACACC [En+], the binding result in data set [1] (lower CSPs than A7 and C7) was “binds more weakly”.

For GCCCCCGCGCCCG [ssGC13mer], the binding result in data set [2] (setting [7]) is “no binding”.

For “GCCCCCGCGCCCG (double strand) [dsGC13mer]”, the binding result in data set [2] (yeast tRNA, 10 mM MgCl2, slightly less preferred than AT, label: 5'-6-FAM on fw strand) is “binds”.

In the case of GCGCACAATATAACGC [ssAT16mer], the binding result is given as “binds” in data set [1] (CSPs equal to A7/C7, single-stranded DNA) and “no binding” in data set [5] (single-stranded DNA).

For the sequence “GCAATAAATACG (double strand) [dsAT13mer]”, the binding result in data set [6] is given as “binds more weakly”.

Take “CGCCCCCGCGCCCGCG (double strand) [dsGC16mer]”: the binding result in data set [5] (same trajectories, lower maximum CSP than AT16mer) was “binds more weakly”.

On to CGGACU [En-], for which the binding result in data set [1] (lower CSPs than A7 and C7) is reported as “binds more weakly”.
